13 molecules from patent US5004780A, “Cyclic monoperoxyketal” (priority 1988, dated 1991) can be followed below.

A short description of data set [1]: Polymerization of styrene at 80° C. with peroxyketal as initiator. The settings on record: 10% conversion; for Molecular weight Mn / Molecular weight Mw: polymer, GPC.
Data set [2] in a line: Production of acrylic resin with peroxyketal as initiator. The settings on record: GPC, 0.03 mol equivalent active oxygen, 125° C.; for Molecular weight Mn: polystyrene standard.
Data set [3] can be described thus: Curing of unsaturated polyester resin at 80° C. (JIS K6901). The conditions noted are these: for Curing time / Gelation time: 80° C.; for Peak exothermic temperature: thermostat at 80° C.
Data set [4] can be described thus: Pot-life at 40° C. of unsaturated polyester resin containing the catalyst. The conditions noted are these: visual observation.

A unit is not stated for every read-out.

For `CC(C)(C)OOC1(OOC(C)(C)C)CCCCC1` [Comparative example 1, 1,1-bis(1,1-dimethylethylperoxy)cyclohexane, reference compound], in data set [1] (initiator 0.01 mol/l), the Polymerization rate was 9.12 ×10^5 (mol/l/s), the “Molecular weight Mn” value was 17.9 ×10^-4 and the “Molecular weight Mw” value is reported as 32.3 ×10^-4. Also, in data set [1] (initiator 2.0 g/l), the Polymerization rate was 7.99 ×10^5 (mol/l/s), the “Molecular weight Mn” value is 20.4 ×10^-4 and the “Molecular weight Mw” value is given as 36.8 ×10^-4. Besides, in data set [2], the “Molecular weight Mw/Mn” value was found to be 4.1 and the “Molecular weight Mn” value is on record as 5,400. In data set [3], this molecule registered a Curing time of 32.9 min, a Gelation time of 28.5 min and a Peak exothermic temperature of 182 °C. Moreover, the Pot-life in data set [4] was 69 h.
For the molecule `COC1(OOC(C)(C)C)CCCCC1` [Example 7, 1-methoxy-1-(1,1-dimethylethylperoxy)cyclohexane], in data set [1] (initiator 0.01 mol/l), the Polymerization rate is given as 9.56 ×10^5 (mol/l/s), the “Molecular weight Mn” value is 15.9 ×10^-4 and the “Molecular weight Mw” value is 30.6 ×10^-4. Moreover, in data set [1] (initiator 2.0 g/l), the Polymerization rate is reported as 9.51 ×10^5 (mol/l/s), the “Molecular weight Mn” value is 16.0 ×10^-4 and the “Molecular weight Mw” value is on record as 30.4 ×10^-4. For the same molecule, in data set [2], the “Molecular weight Mw/Mn” value came to 2.8 and the “Molecular weight Mn” value is 4,100. Moreover, in data set [3], the Curing time was 16.6 min, the Gelation time was 13.3 min and the Peak exothermic temperature was 191 °C. The molecule further had a Pot-life in data set [4] of 22 h.
For `CCC(C)(C)OOC1(OC)CCCCC1` [Example 8, 1-methoxy-1-(1,1-dimethylpropylperoxy)cyclohexane], in data set [1] (initiator 0.01 mol/l), the Polymerization rate was 11.93 ×10^5 (mol/l/s), the “Molecular weight Mn” value is listed as 14.5 ×10^-4 and the “Molecular weight Mw” value is recorded as 26.8 ×10^-4. For the same molecule, in data set [1] (initiator 2.0 g/l), the Polymerization rate is 11.47 ×10^5 (mol/l/s), the “Molecular weight Mn” value is on record as 15.1 ×10^-4 and the “Molecular weight Mw” value was 27.0 ×10^-4. In data set [3], the Curing time came to 11.7 min, the Gelation time is given as 9.4 min and the Peak exothermic temperature turned out to be 200 °C. For the same molecule, in data set [4], the Pot-life came out at 20 h.
On to `CCCC(C)(C)OOC1(OC)CCCCC1` [Example 9, 1-methoxy-1-(1,1-dimethylbutylperoxy)cyclohexane], for which, in data set [1] (initiator 0.01 mol/l), the Polymerization rate is on record as 12.18 ×10^5 (mol/l/s), the “Molecular weight Mn” value is on record as 14.2 ×10^-4 and the “Molecular weight Mw” value is 24.7 ×10^-4. In data set [1] (initiator 2.0 g/l), the Polymerization rate is 11.35 ×10^5 (mol/l/s), the “Molecular weight Mn” value is given as 15.2 ×10^-4 and the “Molecular weight Mw” value was 26.3 ×10^-4. Also, in data set [2], the “Molecular weight Mw/Mn” value is recorded as 2.1 and the “Molecular weight Mn” value is 3,600. In addition, in data set [3], the Curing time came to 11.5 min, the Gelation time stood at 9.3 min and the Peak exothermic temperature is 199 °C. Moreover, in data set [4], the Pot-life amounted to 20 h.
Take `COC1(OOC(C)(C)CC(C)(C)C)CCCCC1` [Example 10, 1-methoxy-1-(1,1,3,3-tetramethylbutylperoxy)cyclohexane]: in data set [1] (initiator 0.01 mol/l), the Polymerization rate is listed as 19.39 ×10^5 (mol/l/s), the “Molecular weight Mn” value is on record as 9.1 ×10^-4 and the “Molecular weight Mw” value was 14.8 ×10^-4. In data set [1] (initiator 2.0 g/l), the Polymerization rate is recorded as 17.01 ×10^5 (mol/l/s), the “Molecular weight Mn” value is 10.4 ×10^-4 and the “Molecular weight Mw” value is on record as 17.1 ×10^-4. In data set [3], this molecule registered a Curing time of 6.3 min, a Gelation time of 5.2 min and a Peak exothermic temperature of 204 °C. The same molecule showed a Pot-life in data set [4] of 17 h.
`COC1(OOC(C)(C)c2ccccc2)CCCCC1` [Example 11, 1-methoxy-1-(1-methyl-1-phenylethylperoxy)cyclohexane]: in data set [1] (initiator 0.01 mol/l), the Polymerization rate was 12.61 ×10^5 (mol/l/s), the “Molecular weight Mn” value is 13.3 ×10^-4 and the “Molecular weight Mw” value is on record as 23.6 ×10^-4. In addition, in data set [1] (initiator 2.0 g/l), the Polymerization rate is 10.97 ×10^5 (mol/l/s), the “Molecular weight Mn” value is 15.3 ×10^-4 and the “Molecular weight Mw” value is listed as 27.1 ×10^-4. Besides, in data set [3], the Curing time is recorded as 15.4 min, the Gelation time is 12.8 min and the Peak exothermic temperature came out at 198 °C. In data set [4], the Pot-life is 24 h.
`CCCC(C)(C)OOC1(OC)CC(C)CC(C)(C)C1` (stereo not drawn) [Example 12, 1-methoxy-1-(1,1-dimethylbutylperoxy)-3,3,5-trimethylcyclohexane]: in data set [1] (initiator 0.01 mol/l), the Polymerization rate was 11.60 ×10^5 (mol/l/s), the “Molecular weight Mn” value is recorded as 15.6 ×10^-4 and the “Molecular weight Mw” value was 26.0 ×10^-4. In addition, in data set [1] (initiator 2.0 g/l), the Polymerization rate is listed as 8.67 ×10^5 (mol/l/s), the “Molecular weight Mn” value is given as 20.9 ×10^-4 and the “Molecular weight Mw” value is 34.8 ×10^-4. In addition, in data set [3], the Curing time came to 11.7 min, the Gelation time was 9.5 min and the Peak exothermic temperature was 195 °C. Also, the Pot-life in data set [4] was 21 h.
In the case of `CCC(C)(C)OOC1(OOC(C)(C)CC)CCCCC1` [compound 2, 1,1-bis(1,1-dimethylpropylperoxy)cyclohexane, reference compound], in data set [1] (initiator 0.01 mol/l), the Polymerization rate was 10.97 ×10^5 (mol/l/s), the “Molecular weight Mn” value is 1.64 ×10^-4 and the “Molecular weight Mw” value was 27.9 ×10^-4. In addition, in data set [1] (initiator 2.0 g/l), the Polymerization rate is 9.13 ×10^5 (mol/l/s), the “Molecular weight Mn” value is reported as 19.7 ×10^-4 and the “Molecular weight Mw” value is listed as 33.5 ×10^-4. Besides, in data set [3], the Curing time is given as 22.8 min, the Gelation time turned out to be 19.8 min and the Peak exothermic temperature is 191 °C. Moreover, the Pot-life in data set [4] amounted to 67 h.
As for `CCCC(C)(C)OOC1(OOC(C)(C)CCC)CCCCC1` [compound 3, 1,1-bis(1,1-dimethylbutylperoxy)cyclohexane, reference compound], in data set [1] (initiator 0.01 mol/l), the Polymerization rate is reported as 11.59 ×10^5 (mol/l/s), the “Molecular weight Mn” value was 15.5 ×10^-4 and the “Molecular weight Mw” value is given as 26.1 ×10^-4. For the same molecule, in data set [1] (initiator 2.0 g/l), the Polymerization rate was 9.21 ×10^5 (mol/l/s), the “Molecular weight Mn” value is 19.5 ×10^-4 and the “Molecular weight Mw” value was 32.8 ×10^-4. In data set [2], the “Molecular weight Mw/Mn” value came to 3.1 and the “Molecular weight Mn” value was 4,700. In data set [3], the Curing time came out at 24.0 min, the Gelation time was 20.6 min and the Peak exothermic temperature was determined as 188 °C. This molecule returned a Pot-life in data set [4] of 69 h.
Take `CC(C)(C)CC(C)(C)OOC1(OOC(C)(C)CC(C)(C)C)CCCCC1` [compound 4, 1,1-bis(1,1,3,3-tetramethylbutylperoxy)cyclohexane, reference compound]: in data set [1] (initiator 0.01 mol/l), the Polymerization rate was 18.43 ×10^5 (mol/l/s), the “Molecular weight Mn” value is reported as 10.2 ×10^-4 and the “Molecular weight Mw” value is given as 16.4 ×10^-4. Further, in data set [1] (initiator 2.0 g/l), the Polymerization rate was 13.50 ×10^5 (mol/l/s), the “Molecular weight Mn” value is 13.9 ×10^-4 and the “Molecular weight Mw” value is reported as 22.4 ×10^-4. In data set [3], this molecule yielded a Curing time of 13.3 min, a Gelation time of 11.2 min and a Peak exothermic temperature of 201 °C. Further, the Pot-life in data set [4] was 41 h.
For the molecule `CC(C)(OOC1(OOC(C)(C)c2ccccc2)CCCCC1)c1ccccc1` [compound 5, 1,1-bis(1-methyl-1-phenylethylperoxy)cyclohexane, reference compound], in data set [1] (initiator 0.01 mol/l), the Polymerization rate is 12.03 ×10^5 (mol/l/s), the “Molecular weight Mn” value is given as 14.9 ×10^-4 and the “Molecular weight Mw” value is given as 24.9 ×10^-4. In addition, in data set [1] (initiator 2.0 g/l), the Polymerization rate is recorded as 8.68 ×10^5 (mol/l/s), the “Molecular weight Mn” value is on record as 20.7 ×10^-4 and the “Molecular weight Mw” value is on record as 34.6 ×10^-4. For the same molecule, in data set [3], the Curing time was determined as 28.9 min, the Gelation time was 25.3 min and the Peak exothermic temperature turned out to be 185 °C. This molecule also came in with a Pot-life in data set [4] of 63 h.
Take `CCCC(C)(C)OOC1(OOC(C)(C)CCC)CC(C)CC(C)(C)C1` (stereo not drawn) [compound 6, 1,1-bis(1,1-dimethylbutylperoxy)-3,3,5-trimethylcyclohexane, reference compound]: in data set [1] (initiator 0.01 mol/l), the Polymerization rate is reported as 11.60 ×10^5 (mol/l/s), the “Molecular weight Mn” value was 15.6 ×10^-4 and the “Molecular weight Mw” value is on record as 26.0 ×10^-4. In addition, in data set [1] (initiator 2.0 g/l), the Polymerization rate is reported as 8.67 ×10^5 (mol/l/s), the “Molecular weight Mn” value was 20.9 ×10^-4 and the “Molecular weight Mw” value is 34.8 ×10^-4. In data set [3], this molecule displayed a Curing time of 24.1 min, a Gelation time of 20.5 min and a Peak exothermic temperature of 187 °C. The Pot-life in data set [4] was 68 h.
In data set [3], `CC(C)(C)OOC(=O)c1ccccc1` [compound 28, 1,1-dimethylethyl peroxybenzoate] had a Curing time of 43.0 min, a Gelation time of 30.8 min and a Peak exothermic temperature of 139 °C. In data set [4], the Pot-life is 15 h.
